# The supplement of paper PMC4604168 (melanoma cell lines)
# Some of the results follow. Repeats are few or missing, and single values can be far off.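 The apoptosis fraction was the count of cleaved-PARP antibody-stained nuclei relative to all DNA-stained nuclei, imaged in 1,536-well plates. Screening doses were set so most cells survived, and baseline and induced cleaved-PARP levels vary greatly across cell lines.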
# System: CBRC016 (line from a melanoma biopsy)
# Assay: cleaved PARP positive nuclei fraction relative to DMSO control; melanoma cells; higher = more apoptosis
# Details: library dose: low library concentration; 72 h
row,SMILES,cleaved PARP positive nuclei fraction
1,"COc1ccc2c(c1)CCC1C2CCC2(C)C(NCCCCCCN3C(=O)C=CC3=O)CCC12 (stereo unspecified) + Oc1cc(-c2nc(-c3ccccc3)[nH]c2-c2ccncc2)ccc1Cl [L779450] (first compound 0.4 µM, partner dose 0.2 µM)",79.9%
2,"CN(C)S(=O)(=O)c1ccc2c(c1)/C(=C/c1cc3c([nH]1)CCCC3)C(=O)N2 + O=C(O)C(=O)Nc1sc2c(c1C(=O)O)CCNC2 [TCS401] (first compound 0.4 µM, partner dose 1.66667 µM)",57.3%
3,"COc1ccc(-c2ccc3c(N4CCOCC4)nc(N4C[C@@H](C)O[C@@H](C)C4)nc3n2)cc1CO + COc1cc(N2CCC(N3CCN(C)CC3)CC2)ccc1Nc1ncc(Cl)c(Nc2ccccc2S(=O)(=O)C(C)C)n1 [NVP-TAE684] (first compound 0.02 µM, partner dose 0.08 µM)",53.6%
4,"COc1cc2c(Oc3ccc4[nH]c(C)cc4c3F)ncnc2cc1OCCCN1CCCC1 [cediranib] + Oc1cc(-c2nc(-c3ccccc3)[nH]c2-c2ccncc2)ccc1Cl [L779450] (first compound 0.4 µM, partner dose 0.2 µM)",36.8%
5,"O=C(Nc1ccccc1)c1cc([N+](=O)[O-])ccc1Cl + Oc1cc(-c2nc(-c3ccccc3)[nH]c2-c2ccncc2)ccc1Cl [L779450] (first compound 2 µM, partner dose 0.2 µM)",95.4%
6,"O=C(Nc1ccccc1)c1cc([N+](=O)[O-])ccc1Cl + CCCCCCCCCCCC1=C(O)C(=O)C=C(O)C1=O [Embelin] (first compound 2 µM, partner dose 1.2 µM)",96.2%
